The list shows a part of the results.

By UniProt entry, the sequences of proteins in these tests, tags left out. Where a name states a change or a piece, a line headed by the entry shows the natural chain unless it says otherwise.
UniProt Q8WYQ5: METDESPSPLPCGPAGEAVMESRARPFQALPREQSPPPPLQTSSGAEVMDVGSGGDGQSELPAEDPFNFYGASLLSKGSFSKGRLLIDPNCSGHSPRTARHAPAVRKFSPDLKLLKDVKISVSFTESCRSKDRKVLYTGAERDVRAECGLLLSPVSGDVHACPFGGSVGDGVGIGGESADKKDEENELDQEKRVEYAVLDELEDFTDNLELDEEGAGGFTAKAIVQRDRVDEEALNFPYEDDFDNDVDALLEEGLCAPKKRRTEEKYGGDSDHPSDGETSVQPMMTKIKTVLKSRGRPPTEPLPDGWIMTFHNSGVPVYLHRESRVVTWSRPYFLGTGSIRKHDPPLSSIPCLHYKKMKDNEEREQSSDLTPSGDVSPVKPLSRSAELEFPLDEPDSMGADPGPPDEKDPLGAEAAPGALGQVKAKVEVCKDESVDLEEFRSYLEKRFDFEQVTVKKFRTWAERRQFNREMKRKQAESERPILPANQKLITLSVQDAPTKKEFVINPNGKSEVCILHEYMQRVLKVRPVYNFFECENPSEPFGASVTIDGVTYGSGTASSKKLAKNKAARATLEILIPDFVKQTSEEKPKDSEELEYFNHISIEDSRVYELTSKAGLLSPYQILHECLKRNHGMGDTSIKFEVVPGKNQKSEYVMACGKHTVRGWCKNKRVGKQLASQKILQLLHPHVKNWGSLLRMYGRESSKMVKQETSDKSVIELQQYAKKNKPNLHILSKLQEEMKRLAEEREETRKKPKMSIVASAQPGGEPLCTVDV
UniProt O43583: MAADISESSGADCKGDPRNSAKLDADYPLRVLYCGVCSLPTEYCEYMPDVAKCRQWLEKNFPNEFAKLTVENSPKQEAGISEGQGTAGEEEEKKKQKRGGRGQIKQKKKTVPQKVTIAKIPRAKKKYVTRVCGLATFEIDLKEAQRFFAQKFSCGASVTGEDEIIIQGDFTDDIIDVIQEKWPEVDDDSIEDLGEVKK
UniProt P35659: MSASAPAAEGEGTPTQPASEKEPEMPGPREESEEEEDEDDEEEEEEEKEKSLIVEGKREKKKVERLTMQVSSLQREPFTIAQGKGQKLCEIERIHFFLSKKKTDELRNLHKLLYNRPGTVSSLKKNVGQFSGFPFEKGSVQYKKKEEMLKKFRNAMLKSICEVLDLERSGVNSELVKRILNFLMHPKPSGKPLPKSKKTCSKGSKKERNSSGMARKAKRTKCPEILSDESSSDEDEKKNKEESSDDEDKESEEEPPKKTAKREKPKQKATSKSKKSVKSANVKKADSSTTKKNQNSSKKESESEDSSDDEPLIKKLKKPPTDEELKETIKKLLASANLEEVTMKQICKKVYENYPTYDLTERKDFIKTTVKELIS
UniProt P30046: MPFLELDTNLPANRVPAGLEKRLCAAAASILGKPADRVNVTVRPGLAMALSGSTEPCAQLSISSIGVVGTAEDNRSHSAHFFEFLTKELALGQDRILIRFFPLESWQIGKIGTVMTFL
UniProt Q9UJV9: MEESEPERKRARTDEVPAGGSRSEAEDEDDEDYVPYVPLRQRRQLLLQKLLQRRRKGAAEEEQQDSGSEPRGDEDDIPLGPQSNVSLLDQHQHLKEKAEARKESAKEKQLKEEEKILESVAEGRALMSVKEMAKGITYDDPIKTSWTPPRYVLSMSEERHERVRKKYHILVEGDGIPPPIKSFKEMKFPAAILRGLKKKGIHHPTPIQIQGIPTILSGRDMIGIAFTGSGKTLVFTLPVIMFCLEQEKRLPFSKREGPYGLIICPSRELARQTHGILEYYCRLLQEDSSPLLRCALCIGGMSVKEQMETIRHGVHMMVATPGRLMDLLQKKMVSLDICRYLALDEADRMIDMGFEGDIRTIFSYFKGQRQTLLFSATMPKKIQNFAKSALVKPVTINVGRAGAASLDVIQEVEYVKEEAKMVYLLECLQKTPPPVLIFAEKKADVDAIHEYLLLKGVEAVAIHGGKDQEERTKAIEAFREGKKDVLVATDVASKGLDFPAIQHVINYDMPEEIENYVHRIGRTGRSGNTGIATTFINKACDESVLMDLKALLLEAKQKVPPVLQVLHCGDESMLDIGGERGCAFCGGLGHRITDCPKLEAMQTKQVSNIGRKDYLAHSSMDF
UniProt Q9NYC9: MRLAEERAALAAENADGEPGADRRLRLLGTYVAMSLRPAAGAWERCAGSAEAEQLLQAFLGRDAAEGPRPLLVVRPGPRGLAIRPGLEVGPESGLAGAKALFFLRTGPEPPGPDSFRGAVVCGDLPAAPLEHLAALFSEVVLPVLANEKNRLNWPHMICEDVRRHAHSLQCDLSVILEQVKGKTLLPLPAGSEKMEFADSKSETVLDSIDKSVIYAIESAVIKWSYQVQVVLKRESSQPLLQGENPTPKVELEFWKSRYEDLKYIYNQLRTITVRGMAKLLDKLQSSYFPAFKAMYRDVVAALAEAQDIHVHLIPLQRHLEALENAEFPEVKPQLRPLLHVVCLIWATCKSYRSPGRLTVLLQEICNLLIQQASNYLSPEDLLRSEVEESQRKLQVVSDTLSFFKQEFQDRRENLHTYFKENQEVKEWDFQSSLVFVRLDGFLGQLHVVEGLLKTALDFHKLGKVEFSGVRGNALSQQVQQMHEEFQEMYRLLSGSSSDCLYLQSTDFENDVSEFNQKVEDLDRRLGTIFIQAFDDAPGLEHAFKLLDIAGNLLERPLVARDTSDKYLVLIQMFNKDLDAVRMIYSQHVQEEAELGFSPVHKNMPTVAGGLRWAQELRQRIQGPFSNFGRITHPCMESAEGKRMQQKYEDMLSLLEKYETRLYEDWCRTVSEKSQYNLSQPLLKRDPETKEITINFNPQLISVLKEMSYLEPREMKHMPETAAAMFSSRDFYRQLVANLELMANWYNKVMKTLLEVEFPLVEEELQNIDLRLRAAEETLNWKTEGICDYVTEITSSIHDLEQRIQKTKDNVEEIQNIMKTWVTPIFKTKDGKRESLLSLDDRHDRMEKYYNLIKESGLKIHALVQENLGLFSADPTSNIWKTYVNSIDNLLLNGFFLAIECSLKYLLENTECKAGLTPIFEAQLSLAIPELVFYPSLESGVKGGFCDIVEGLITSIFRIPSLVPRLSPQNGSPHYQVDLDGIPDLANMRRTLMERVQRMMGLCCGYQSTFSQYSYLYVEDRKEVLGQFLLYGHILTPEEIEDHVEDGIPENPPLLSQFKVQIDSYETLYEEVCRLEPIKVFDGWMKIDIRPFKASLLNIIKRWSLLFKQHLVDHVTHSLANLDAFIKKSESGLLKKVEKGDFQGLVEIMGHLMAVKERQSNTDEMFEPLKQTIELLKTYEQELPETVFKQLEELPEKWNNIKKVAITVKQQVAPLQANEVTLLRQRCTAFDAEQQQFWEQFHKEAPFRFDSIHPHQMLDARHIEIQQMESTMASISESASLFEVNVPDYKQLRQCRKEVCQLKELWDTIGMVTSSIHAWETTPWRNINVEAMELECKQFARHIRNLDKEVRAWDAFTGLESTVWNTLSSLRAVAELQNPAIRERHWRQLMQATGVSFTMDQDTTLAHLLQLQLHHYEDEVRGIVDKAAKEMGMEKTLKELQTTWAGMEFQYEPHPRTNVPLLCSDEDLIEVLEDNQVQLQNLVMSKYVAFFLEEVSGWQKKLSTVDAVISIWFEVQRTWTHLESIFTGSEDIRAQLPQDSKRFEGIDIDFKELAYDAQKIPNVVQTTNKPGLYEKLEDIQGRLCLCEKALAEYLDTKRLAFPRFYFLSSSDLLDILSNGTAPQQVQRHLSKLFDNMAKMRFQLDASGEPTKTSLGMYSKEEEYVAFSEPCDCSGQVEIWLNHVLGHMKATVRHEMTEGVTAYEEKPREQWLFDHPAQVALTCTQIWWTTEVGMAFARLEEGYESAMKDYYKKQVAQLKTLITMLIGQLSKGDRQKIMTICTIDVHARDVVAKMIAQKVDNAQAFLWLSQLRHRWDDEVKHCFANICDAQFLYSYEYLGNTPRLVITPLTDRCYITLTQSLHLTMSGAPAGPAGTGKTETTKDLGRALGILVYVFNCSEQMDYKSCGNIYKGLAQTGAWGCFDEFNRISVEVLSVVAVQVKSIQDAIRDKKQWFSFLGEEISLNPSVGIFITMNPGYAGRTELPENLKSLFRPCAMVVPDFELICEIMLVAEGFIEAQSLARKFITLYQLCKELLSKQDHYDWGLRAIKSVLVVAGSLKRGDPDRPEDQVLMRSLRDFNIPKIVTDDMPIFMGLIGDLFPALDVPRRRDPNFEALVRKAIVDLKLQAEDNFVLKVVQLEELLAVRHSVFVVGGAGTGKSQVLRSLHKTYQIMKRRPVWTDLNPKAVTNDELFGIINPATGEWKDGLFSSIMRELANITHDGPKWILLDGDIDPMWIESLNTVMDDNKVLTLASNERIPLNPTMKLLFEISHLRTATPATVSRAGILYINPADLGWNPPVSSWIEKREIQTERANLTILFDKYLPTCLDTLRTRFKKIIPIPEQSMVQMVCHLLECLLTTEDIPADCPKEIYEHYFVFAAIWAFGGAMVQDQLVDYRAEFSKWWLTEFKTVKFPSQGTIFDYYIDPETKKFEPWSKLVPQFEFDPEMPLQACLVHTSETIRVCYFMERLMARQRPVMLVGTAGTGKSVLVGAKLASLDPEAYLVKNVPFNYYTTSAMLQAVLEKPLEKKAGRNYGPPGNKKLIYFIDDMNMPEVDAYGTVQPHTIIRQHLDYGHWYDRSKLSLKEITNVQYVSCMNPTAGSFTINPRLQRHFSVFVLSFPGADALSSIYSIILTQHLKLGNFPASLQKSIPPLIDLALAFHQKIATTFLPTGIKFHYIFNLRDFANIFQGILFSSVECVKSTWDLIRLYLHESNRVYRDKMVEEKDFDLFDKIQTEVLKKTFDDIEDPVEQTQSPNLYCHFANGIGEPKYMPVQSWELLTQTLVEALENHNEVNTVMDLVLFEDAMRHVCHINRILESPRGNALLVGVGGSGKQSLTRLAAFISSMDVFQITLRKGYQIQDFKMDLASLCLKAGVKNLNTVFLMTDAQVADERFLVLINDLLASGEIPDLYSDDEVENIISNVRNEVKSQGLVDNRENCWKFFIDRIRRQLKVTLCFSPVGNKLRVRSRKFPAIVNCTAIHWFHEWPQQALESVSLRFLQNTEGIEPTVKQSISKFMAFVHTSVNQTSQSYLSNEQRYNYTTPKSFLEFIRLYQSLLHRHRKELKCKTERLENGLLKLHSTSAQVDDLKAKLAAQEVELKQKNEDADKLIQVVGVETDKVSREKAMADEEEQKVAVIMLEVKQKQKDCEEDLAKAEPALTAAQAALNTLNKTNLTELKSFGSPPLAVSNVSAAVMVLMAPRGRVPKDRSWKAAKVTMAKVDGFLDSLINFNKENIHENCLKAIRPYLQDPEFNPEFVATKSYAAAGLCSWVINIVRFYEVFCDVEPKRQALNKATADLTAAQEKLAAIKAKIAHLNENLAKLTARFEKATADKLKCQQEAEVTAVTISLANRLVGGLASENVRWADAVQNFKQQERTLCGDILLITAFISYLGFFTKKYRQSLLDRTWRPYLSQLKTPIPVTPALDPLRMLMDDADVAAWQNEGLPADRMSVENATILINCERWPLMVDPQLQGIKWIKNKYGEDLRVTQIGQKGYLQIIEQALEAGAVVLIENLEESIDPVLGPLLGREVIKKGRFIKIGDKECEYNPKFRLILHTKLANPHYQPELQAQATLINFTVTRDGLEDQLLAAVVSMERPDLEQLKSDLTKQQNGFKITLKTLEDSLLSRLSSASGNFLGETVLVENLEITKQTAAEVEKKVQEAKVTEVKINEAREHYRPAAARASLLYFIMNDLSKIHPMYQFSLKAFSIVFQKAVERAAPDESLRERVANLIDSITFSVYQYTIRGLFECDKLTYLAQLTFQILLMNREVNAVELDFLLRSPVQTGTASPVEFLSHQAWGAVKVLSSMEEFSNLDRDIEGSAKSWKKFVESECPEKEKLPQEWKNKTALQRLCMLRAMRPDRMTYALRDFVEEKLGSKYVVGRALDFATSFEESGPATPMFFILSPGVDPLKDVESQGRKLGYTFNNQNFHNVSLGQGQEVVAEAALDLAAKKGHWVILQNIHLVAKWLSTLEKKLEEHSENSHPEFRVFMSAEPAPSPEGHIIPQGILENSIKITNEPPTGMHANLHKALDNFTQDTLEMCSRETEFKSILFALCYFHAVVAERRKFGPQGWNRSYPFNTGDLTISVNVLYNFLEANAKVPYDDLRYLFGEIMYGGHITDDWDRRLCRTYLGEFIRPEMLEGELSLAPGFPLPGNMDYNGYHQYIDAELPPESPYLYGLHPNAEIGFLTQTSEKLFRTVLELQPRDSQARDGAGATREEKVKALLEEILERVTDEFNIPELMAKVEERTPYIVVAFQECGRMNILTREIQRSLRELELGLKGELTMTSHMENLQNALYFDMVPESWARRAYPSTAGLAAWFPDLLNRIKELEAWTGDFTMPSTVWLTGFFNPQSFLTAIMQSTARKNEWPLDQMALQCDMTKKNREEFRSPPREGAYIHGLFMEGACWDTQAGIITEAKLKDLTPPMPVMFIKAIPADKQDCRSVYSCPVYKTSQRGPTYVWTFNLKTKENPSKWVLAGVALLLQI

Compound in this test: CN1CCN(c2nc(C3=C(c4c[nH]c5ccccc45)C(=O)NC3=O)c3ccccc3n2)CC1 [sotrastaurin]
The experiment in a line: log2 fold change, soluble protein after heating vs DMSO (PISA); higher = thermal stabilisation; K562 cells, 10 uM, 30 min; active = over 0.2 and 3.5 SD of the protein, either way, in both replicates (recomputed). The method in brief:
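Soluble protein was quantified by TMTpro 16plex LC-MS/MS after channel sums were equalised. It was obtained as the supernatant after 21,000xg for 90 min from pooled aliquots of K562 cells (2×10^6 cells/mL, 10 μM compound, 30 min) heated for 3 min across 48°C-58°C and extracted in PBS with 0.5% NP-40 at 4°C. Thermal stability values are relative to control samples and come from duplicates. They are given as log2 fold changes.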
Regarding DGCR8 (UniProt Q8WYQ5), the log2 fold change is inactive: -0.04.
Regarding DENND6A (UniProt Q8IWF6), the log2 fold change was inactive: -0.109.
In the case of DHX57 (UniProt Q6P158) it was inactive: 0.062.
With DHRS11 (UniProt Q6UWP2), the log2 fold change was inactive: 0.021.
With DENR (UniProt O43583) the figure was inactive: 0.043.
In the case of DHX15 (UniProt O43143) it was inactive: 0.051; in that of DEK (UniProt P35659), inactive: -0.044; in that of DENND4C isoform 7 (UniProt Q5VZ89), inactive: -0.069.
With DDX21 (UniProt Q9NR30) the figure was inactive: -0.017.
Consider DLG3 (UniProt Q92796), for which the log2 fold change was inactive: 0.048.
DENND4B (UniProt O75064): the log2 fold change is inactive: -0.074.
In the case of DDHD2 (UniProt O94830) it was inactive: 0.005; in that of DIDO1 (UniProt Q9BTC0), inactive: -0.03.
For DIP2B (UniProt Q9P265), the log2 fold change was inactive: -0.005.
In the case of DIS3L (UniProt Q8TF46) it was inactive: -0.117.
On to DDT (UniProt P30046), for which the log2 fold change was inactive: 0.019.
In the case of DDI2 isoform 3 (UniProt Q5TDH0) it was inactive: -0.003; in that of DDX42 (UniProt Q86XP3), inactive: -0.072.
In the case of DICER1 (UniProt Q9UPY3) it was inactive: 0.035.
With DDX41 (UniProt Q9UJV9) the figure was inactive: -0.012; with DDX20 (UniProt Q9UHI6), inactive: -0.361; with DNAH9 (UniProt Q9NYC9), inactive: 0.065.
DDX19B (UniProt Q9UMR2): the log2 fold change is inactive: -0.002.

The values are drawn from the supplement of paper PMC10849652.
